# Patent US9751832B2, “Selective histone deactylase 6 inhibitors” (H. LEE MOFFITT CANCER CENTER AND RESEARCH INSTITUTE, INC., priority 2013, dated 2017)
# At least one compound was matched to its structure with a doubt left.
# Assays:
# [1] = system: acetyl-tubulin and acetyl-histone3 in human melanoma cell lines; assay: Western blot of HDAC substrate acetylation in human melanoma cell lines; assay type: cell-based; conditions: WM795 cells, 24 hrs, FIG. 47
# Method: To confirm the selectivity of isotype specific HDACi, Western blot analysis was performed on the acetylation status of known HDAC substrates including histone H3 and H4, which are known Class I HDAC targets, and α-tubulin, a target for HDAC6. The doses required to impart the anti-proliferative effect coincided with that needed to increase acetylation of the respective HDAC substrates (FIG. 41F-41H). […] Conversely, HDAC6 selective inhibitors (HDAC6i) increase α-tubulin acetylation but not histone acetylation (FIG. 41F).
# [2] = system: HuT-78, murine MCL, B16 and SM1 cells; assay: Cell viability of cancer cells (CellTiter 96 Aqueous ONE); assay type: cell-based, human and murine; conditions: 24 hrs, compared to DMSO
# Method: Human cutaneous T-cell lymphoma (CTCL) HuT-78 (A), murine mantle cell lymphoma (MCL) (B), and murine melanoma B16 (C) and SM1 (D) cells were incubated with JB7-19, JB7-22, JB720 at different concentrations for 24 hrs. Cell viability was measured using CellTiter 96 Aqueous ONE solution (Promega, Madison, Wis.) and compared to DMSO treated control samples. Error bars represent standard deviation from triplicates.
# [3] = system: IL-10 production in PEM and RAW264.7 cells; assay: IL-10 production in antigen presenting cells (ELISA); assay type: cell-based, murine; conditions: 24 hrs
# Method: Murine peritoneal elicited primary macrophages (PEM)(A) and murine RAW264.7 (B) cells were incubated with JB7-19, JB7-22, JB720 at the concentration indicated on each chart. After 24 hrs, the production of IL-10 was measured by ELISA.
compound,measurement,setting,value
CCCCN(Cc1ccc(C(=O)NO)cc1)C(=O)Nc1cccc(N(C)C)c1 [JB7-20],acetyl-tubulin and acetylation status of Histone 3,[1],increase acetyl-tubulin without modifying the acetylation status of Histone 3
same,Cell proliferation of cancer cells,[2],decrease cell proliferation
same,IL-10 production in antigen presenting cells,[3],inhibit IL-10 production
